PMC7992179 (ACS Omega, 2021)

Tested on: MCF-7 cell line
Test: MTT cytotoxicity assay in MCF-7 cells
Type: cell-based
Settings: Homo sapiens, MCF7, 48 h, read-out: IC50 ± SD
Method in brief: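 MCF-7 cells grown in Eagle's MEM with 10% FBS, 1% penicillin/streptomycin, 0.1 mM non-essential amino acids, 10 μg/mL insulin and 1 mM sodium pyruvate at 37 °C, 5% CO2. Trypsin/EDTA-harvested cells were seeded at 6 × 10^4 cells/mL and incubated overnight. Test compound (1–30 μM, or a fixed 30 μM screen against doxorubicin) was applied for 48 h. MTT 0.5 mg/mL for 4 h, DMSO, A570; % inhibition and IC50.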

COc1cccc2c1C(=O)c1c(O)c3c(c(O)c1C2=O)C[C@@](O)(C(=O)CO)C[C@@H]3O[C@H]1C[C@H](N)[C@H](O)[C@H](C)O1 [doxorubicin (DOX), doxorubicin, reference compound] showed an IC50 of 900 ± 140 nM.
